# Measurements as given in article PMC5177622, “Multivalent Histone and DNA Engagement by a PHD/BRD/PWWP Triple Reader Cassette Recruits ZMYND8 to K14ac-Rich Chromatin” (Cell Reports, 2016).
# Sequences of proteins named here, by UniProt entry; tags and fusion partners are left off.
# UniProt Q13547: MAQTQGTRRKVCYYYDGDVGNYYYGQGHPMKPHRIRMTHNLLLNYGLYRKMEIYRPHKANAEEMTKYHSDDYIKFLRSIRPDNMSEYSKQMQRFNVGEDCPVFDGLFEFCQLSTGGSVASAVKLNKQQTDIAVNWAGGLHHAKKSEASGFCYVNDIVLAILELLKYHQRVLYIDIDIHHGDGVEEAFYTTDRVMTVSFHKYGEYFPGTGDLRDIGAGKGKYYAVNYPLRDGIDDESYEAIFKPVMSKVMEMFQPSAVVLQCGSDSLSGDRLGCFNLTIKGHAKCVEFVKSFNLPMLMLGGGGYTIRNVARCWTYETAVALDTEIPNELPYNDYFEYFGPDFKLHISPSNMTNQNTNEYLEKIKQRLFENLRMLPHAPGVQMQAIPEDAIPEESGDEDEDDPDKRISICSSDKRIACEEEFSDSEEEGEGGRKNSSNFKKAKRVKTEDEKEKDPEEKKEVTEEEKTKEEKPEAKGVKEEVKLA
# Target: T1, 3×FLAG-ZMYND8 full length, wild type (human) (UniProt Q9ULU4)
# T1 sequence: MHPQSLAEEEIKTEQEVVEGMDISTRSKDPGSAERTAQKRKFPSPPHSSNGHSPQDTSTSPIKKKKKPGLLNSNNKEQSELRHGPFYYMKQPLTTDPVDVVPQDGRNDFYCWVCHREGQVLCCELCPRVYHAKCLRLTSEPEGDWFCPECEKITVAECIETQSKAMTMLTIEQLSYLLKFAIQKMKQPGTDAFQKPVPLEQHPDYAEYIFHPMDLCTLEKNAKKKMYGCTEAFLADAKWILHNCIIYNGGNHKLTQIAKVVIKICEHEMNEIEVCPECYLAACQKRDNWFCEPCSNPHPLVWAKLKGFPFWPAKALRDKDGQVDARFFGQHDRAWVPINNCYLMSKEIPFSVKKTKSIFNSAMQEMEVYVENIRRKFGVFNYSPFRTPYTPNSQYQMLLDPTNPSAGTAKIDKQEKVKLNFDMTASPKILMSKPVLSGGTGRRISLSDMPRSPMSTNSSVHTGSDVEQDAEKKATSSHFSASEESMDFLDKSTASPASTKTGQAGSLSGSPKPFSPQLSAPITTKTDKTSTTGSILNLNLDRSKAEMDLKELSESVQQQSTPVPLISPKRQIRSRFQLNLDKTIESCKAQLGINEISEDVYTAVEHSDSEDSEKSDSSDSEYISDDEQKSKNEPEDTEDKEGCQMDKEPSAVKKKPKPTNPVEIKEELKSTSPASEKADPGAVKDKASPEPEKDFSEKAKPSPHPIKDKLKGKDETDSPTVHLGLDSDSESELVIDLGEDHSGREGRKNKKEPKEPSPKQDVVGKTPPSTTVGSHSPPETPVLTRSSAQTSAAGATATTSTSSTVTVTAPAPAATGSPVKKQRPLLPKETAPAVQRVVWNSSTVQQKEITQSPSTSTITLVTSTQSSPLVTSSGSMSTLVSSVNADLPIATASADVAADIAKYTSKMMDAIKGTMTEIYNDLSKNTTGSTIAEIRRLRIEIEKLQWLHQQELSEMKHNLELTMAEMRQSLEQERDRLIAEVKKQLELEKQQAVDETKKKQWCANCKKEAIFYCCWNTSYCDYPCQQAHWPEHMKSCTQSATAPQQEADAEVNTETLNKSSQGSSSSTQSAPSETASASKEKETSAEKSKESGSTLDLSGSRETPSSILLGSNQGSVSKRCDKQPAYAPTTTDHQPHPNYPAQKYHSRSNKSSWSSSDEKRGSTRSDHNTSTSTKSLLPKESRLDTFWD
# Test: affinity purification with mass spectrometry; full-length 3×FLAG ZMYND8 WT or BRD N/F from HEK293 cells; SAINTexpress, FDR 1% or lower; n = 2
substance,measurement,value
HDAC1 (from UniProt Q13547 1-482) (enzyme),binding,binds

# No constants are given. Whether binding was seen depends on the method and setting. In cells and extracts the contact can be indirect. A yes stands for co-enrichment or nearness to the bait. Other partners may have been found. Tags and fused reporters may be left off the sequences shown.
